# Results are given in words; binding and its absence hold for the method and conditions named. In cells and extracts the contact can be indirect. Some entries that bind do so weakly or less than the wild type. Where a sequence is shown, tags or fusion partners need not be part of it.
# Amino acid sequences for entries named in this document (tags omitted).
# UniProt P62746: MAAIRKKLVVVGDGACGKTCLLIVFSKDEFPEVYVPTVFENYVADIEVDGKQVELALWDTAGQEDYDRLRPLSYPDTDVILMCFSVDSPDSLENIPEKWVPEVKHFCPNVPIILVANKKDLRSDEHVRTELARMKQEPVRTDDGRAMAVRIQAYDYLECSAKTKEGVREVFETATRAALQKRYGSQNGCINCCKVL
# Molecular target: T1, Flag-tagged human Thioredoxin1 Cys35Ser mutant (flag-hTrx1C35S) (human) (UniProt P10599)
# T1 sequence: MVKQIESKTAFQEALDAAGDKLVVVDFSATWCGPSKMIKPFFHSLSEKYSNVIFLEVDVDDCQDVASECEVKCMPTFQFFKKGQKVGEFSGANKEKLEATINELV
# Assay: co-IP
substance,measurement,value
RhoB (from UniProt P62746 1-196),binding,binds

# From article doi:10.1101/2024.02.27.582366
